Library screen at single concentrations

The values are deposited in ChEMBL (CHEMBL3988442, “University of Dundee, Small-Polar-MMV Screening Library” (2021)).

Results are given as percent effect.
How 0% and 100% were set is not recorded. Most values in the screen are low, and negative values occur.
This is an unselected part of the compounds tested.

Mtb glucose medium: 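Whole-cell growth test on Mycobacterium tuberculosis, read after 3 days in glucose-containing 7H9 medium; the read-out is not stated. Tested at 500 µM. Higher reads as more growth inhibition (inferred: compounds with an IC50 in retests scored well above the rest). About 18,000 compounds were tested under these conditions; 7.9% (about 1,400) showed 50% or more at least once.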
Mtb cholesterol medium: 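Phenotypic screen: M. tuberculosis growth, cholesterol and DPPC medium, 4 days; the read-out is not stated. Tested at 500 µM. The record gives no direction; compounds that gave an IC50 in retests scored well above the rest, so higher reads as more growth inhibition. About 18,000 compounds were tested under these conditions; 5% (about 900) showed 50% or more at least once.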

Compound: CCC(N)c1ncc[nH]1 (stereo unspecified)
Mtb glucose medium: -2.93
Mtb cholesterol medium: -7.158

Compound: Cc1n[nH]c(C)c1CNC(=O)COc1ccc(F)cc1
Mtb glucose medium: 7.081
Mtb cholesterol medium: -1.867

Compound: N#Cc1c(N2CCOCC2)nc2c(c1C#N)CCC2
Mtb glucose medium: -8.198
Mtb cholesterol medium: -1.807

Compound: O=C(CSCc1ccccn1)N1CCCOCC1
Mtb glucose medium: 7.703
Mtb cholesterol medium: 2.209

Compound: CN(C(=O)c1ccc(C#N)cn1)c1ncccc1Br
Mtb glucose medium: -6.069
Mtb cholesterol medium: -8.131

Compound: CCC(C)NC(=O)Cc1ccc2c(c1)OCCO2 (stereo unspecified)
Mtb glucose medium: 49.1
Mtb cholesterol medium: 52.32

Compound: CCn1ncnc1C(C)NC(=O)CN1CCCC1 (stereo unspecified)
Mtb glucose medium: 1.136
Mtb cholesterol medium: -5.329

Compound: CNC(=O)c1ccc(C#N)cc1
Mtb glucose medium: 5.431
Mtb cholesterol medium: 1.069

Compound: C[C@@H]1CN(Cc2nnc(C3CC3)o2)C[C@]1(C)O
Mtb glucose medium: 12.19
Mtb cholesterol medium: -0.4874

Compound: COCCN(Cc1ccncc1)C(=O)CC1CCNC1 (stereo unspecified)
Mtb glucose medium: -7.094
Mtb cholesterol medium: 3.206

Compound: O=C(Cc1ccc(O)cc1)NC1CCNCC1
Mtb glucose medium: -5.731
Mtb cholesterol medium: -8.476

Compound: CCCc1noc(CN2CCC(CO)CC2)n1
Mtb glucose medium: 18.56
Mtb cholesterol medium: 17.27

Compound: CC(C)OCCCNC(=O)C1CCCN1C(=O)C1CC1 (stereo unspecified)
Mtb glucose medium: 3.448
Mtb cholesterol medium: -2.15

Compound: CN(CCCO)c1cc(C2CC(N)C2)nc(N)n1 (stereo unspecified)
Mtb glucose medium: 8.8
Mtb cholesterol medium: 0.929

Compound: Nc1nnc(SCC(=O)NCCc2cccc(Cl)c2)s1
Mtb glucose medium: 56.59
Mtb cholesterol medium: 40.49

Compound: CNC(=O)CSCc1nc(-c2ccccc2C)no1
Mtb glucose medium: 66.58
Mtb cholesterol medium: 78.91

Compound: COCCCOc1ccc(C)cc1S(=O)(=O)N(C)C
Mtb glucose medium: 39.53
Mtb cholesterol medium: 10.76

Compound: CCC(=O)NC1CN(C(=O)OC(C)(C)C)C1
Mtb glucose medium: 13.56
Mtb cholesterol medium: 8.151

Compound: CN(C)S(=O)(=O)N1CCOC(CC2CCCCC2)C1 (stereo unspecified)
Mtb glucose medium: -8.039
Mtb cholesterol medium: -10.59

Compound: CNCCCC(=O)Nc1ccccc1
Mtb glucose medium: 18.39
Mtb cholesterol medium: 2.413

Compound: CCC(C)(N)CCO (stereo unspecified)
Mtb glucose medium: -0.8181
Mtb cholesterol medium: -7.535

Compound: COc1ccccc1NC(=O)CC#N
Mtb glucose medium: 3.843
Mtb cholesterol medium: 14.17

Compound: CN(Cc1ccc2c(c1)OCO2)C(=O)Cc1cccs1
Mtb glucose medium: 77.2
Mtb cholesterol medium: 82.63

Compound: N#Cc1cc(Br)cc(S(=O)(=O)NCCCN)c1
Mtb glucose medium: 50.83
Mtb cholesterol medium: 32.84

Compound: CCN(C)S(=O)(=O)NCC(N)(CC)CC
Mtb glucose medium: -3.484
Mtb cholesterol medium: 3.795

Compound: Cn1nc(C(=O)NC2=NCCS2)cc1C(F)(F)F
Mtb glucose medium: 3.877
Mtb cholesterol medium: 16.74

Compound: NCC1CN(C2CC2)C(=O)O1 (stereo unspecified)
Mtb glucose medium: -7.93
Mtb cholesterol medium: -18.24

Compound: O=C(CCN1CCC(O)C1)N1CCOCC1 (stereo unspecified)
Mtb glucose medium: -8.158
Mtb cholesterol medium: -11.6

Compound: CN(C)C(=O)CSc1nnc(C(F)(F)F)s1
Mtb glucose medium: 80.33
Mtb cholesterol medium: 64.57

Compound: CCN1CCN(CCNC(=O)c2ccc(Cl)cc2)CC1
Mtb glucose medium: 1.118
Mtb cholesterol medium: 5.592

Compound: CCn1cc(S(=O)(=O)NCC2CCN(C3CC3)C2)cn1 (stereo unspecified)
Mtb glucose medium: 10.84
Mtb cholesterol medium: 15.69

Compound: CSCC1CCCN1C(=O)c1ccc(CN)cc1 (stereo unspecified)
Mtb glucose medium: 18.34
Mtb cholesterol medium: -2.664

Compound: Cc1cccc(NC(C)c2ccc(S(N)(=O)=O)cc2)n1 (stereo unspecified)
Mtb glucose medium: -8.89
Mtb cholesterol medium: -5.643

Compound: NC(=O)N1CCC(NCc2sccc2Cl)CC1
Mtb glucose medium: 3.447
Mtb cholesterol medium: -1.201

Compound: Cc1cc(C)nc(-n2ncc(C(N)=O)c2N)n1
Mtb glucose medium: -0.9018
Mtb cholesterol medium: 3.909

Compound: COc1ccc(C(=O)NCc2ccccn2)cc1F
Mtb glucose medium: 35.31
Mtb cholesterol medium: 25.53

Compound: CC(C)(N)c1nnc[nH]1
Mtb glucose medium: 6.183
Mtb cholesterol medium: 1.472

Compound: C[C@@]1(O)CCN(C(=O)c2cnc(C3CC3)nc2)C[C@@H]1O
Mtb glucose medium: 8.425
Mtb cholesterol medium: -7.081

Compound: O=C1c2ccc(F)cc2C(=O)N1Cc1nnsc1Cl
Mtb glucose medium: -19.46
Mtb cholesterol medium: -3.687

Compound: NCc1ccc(NC(=O)c2ccccc2O)cc1
Mtb glucose medium: 53.06
Mtb cholesterol medium: 34.1

Compound: Cc1ncccc1CNc1c(C)c(C)nn1CCO
Mtb glucose medium: 5.678
Mtb cholesterol medium: -7.34

Compound: COc1cc(F)ccc1NS(=O)(=O)N1CCOCC1
Mtb glucose medium: 10.27
Mtb cholesterol medium: 4.348

Compound: COCCN(CCOC)C(=O)c1cccc(C#N)c1
Mtb glucose medium: -0.1574
Mtb cholesterol medium: -12.72

The last 5 entries again:

{"compound": "O=C1c2ccc(F)cc2C(=O)N1Cc1nnsc1Cl", "Mtb glucose medium": -19.46, "Mtb cholesterol medium": -3.687}
{"compound": "NCc1ccc(NC(=O)c2ccccc2O)cc1", "Mtb glucose medium": 53.06, "Mtb cholesterol medium": 34.1}
{"compound": "Cc1ncccc1CNc1c(C)c(C)nn1CCO", "Mtb glucose medium": 5.678, "Mtb cholesterol medium": -7.34}
{"compound": "COc1cc(F)ccc1NS(=O)(=O)N1CCOCC1", "Mtb glucose medium": 10.27, "Mtb cholesterol medium": 4.348}
{"compound": "COCCN(CCOC)C(=O)c1cccc(C#N)c1", "Mtb glucose medium": -0.1574, "Mtb cholesterol medium": -12.72}